Library screening results

The chains behind the UniProt entries cited, without tags or fusion partners.
UniProt E9BF75, entry or part of it: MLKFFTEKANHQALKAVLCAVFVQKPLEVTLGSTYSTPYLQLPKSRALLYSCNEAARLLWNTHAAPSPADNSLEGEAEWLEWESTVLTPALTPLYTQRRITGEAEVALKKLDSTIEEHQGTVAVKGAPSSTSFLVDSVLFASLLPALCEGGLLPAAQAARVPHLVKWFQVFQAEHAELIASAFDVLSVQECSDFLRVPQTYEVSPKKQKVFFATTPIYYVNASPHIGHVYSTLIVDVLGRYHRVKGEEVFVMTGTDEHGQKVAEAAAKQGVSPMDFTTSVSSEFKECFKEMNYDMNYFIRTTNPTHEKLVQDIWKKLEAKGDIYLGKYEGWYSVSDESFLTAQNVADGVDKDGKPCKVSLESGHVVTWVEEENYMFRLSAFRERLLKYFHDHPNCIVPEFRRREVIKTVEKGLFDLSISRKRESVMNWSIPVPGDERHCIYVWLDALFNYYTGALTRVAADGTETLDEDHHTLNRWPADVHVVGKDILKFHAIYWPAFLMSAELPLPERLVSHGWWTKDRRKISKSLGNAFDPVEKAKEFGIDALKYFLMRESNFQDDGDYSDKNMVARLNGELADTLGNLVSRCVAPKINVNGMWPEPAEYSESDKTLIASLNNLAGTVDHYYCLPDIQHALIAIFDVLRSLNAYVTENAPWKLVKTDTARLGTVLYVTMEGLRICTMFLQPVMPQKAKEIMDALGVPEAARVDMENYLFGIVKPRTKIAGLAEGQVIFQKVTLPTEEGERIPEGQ

Data taken from ChEMBL document CHEMBL3988442, “University of Dundee, Small-Polar-MMV Screening Library” (2021).

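Primary screen of methionyl-tRNA synthetase; the read-out is not stated. Target: Methionyl-tRNA synthetase (putative), Leishmania donovani (UniProt E9BF75). The test concentration is not given. Values are per cent inhibition. Of about 68,000 compounds tested this way, about 24 (0.035%) reached 50% or more in at least one test.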

Results are percentages, as filed. The controls that fix the scale are not given in the record; negative values are as filed. Compounds were drawn at random from those tested, without regard to their results.

| Compound | inhibition |
|---|---|
| `CCC(CC)n1nc(C)cc1NC(=O)CC1CCOCC1` | 0.9926 |
| `O=C(Cc1ccccc1F)N1CCC[C@@H]1Cn1c(=O)oc2ccccc21` | 1.562 |
| `Cc1cc(S(=O)(=O)N2CCCc3cc(Cl)ccc32)sc1C(=O)O` | -18.04 |
| `CN(Cc1noc(C2CC2)n1)C1CCN(Cc2ncc[nH]2)C1` (centres undefined) | 4.737 |
| `CN(C)C(=O)c1cccnc1-c1ccc2c(c1)OCCO2` | 5.974 |
| `O=C(NCCNc1ncccn1)C1CCN(C(=O)NC2CC2)CC1` | 19.44 |
| `CCc1ccc(CN2C[C@@H](c3nc(C)no3)C[C@H]3OCC[C@H]32)o1` | 14.29 |
| `c1ccc(CCN2CCCC(c3noc(C4CC4)n3)C2)cc1` (centres undefined) | 11.04 |
| `CC(NC(=O)CCCOc1cccc(F)c1)c1ccncc1` (centres undefined) | 13.71 |
| `Cc1cc(C(N)=O)ccc1NC(=O)N1CCN(c2cccs2)CC1` | 10.64 |
| `Cc1ccc(N2CC[C@@H]3[C@@H](CO[C@H]3CNC(=O)c3ccco3)C2)nn1` | 13.87 |
| `Cc1cc(C)n(CC2CCCN2C(=O)c2ccc3[nH]cnc3c2)n1` (centres undefined) | 17.46 |
| `O=C1CC(c2ccc(C(=O)O)cc2)c2ncn(-c3ccccc3Cl)c2N1` (centres undefined) | 4.935 |
| `Cc1cc(NC(=O)NCc2nncn2C)ccc1OC(C)C` | 10.61 |
| `c1ccc(Cc2noc(CN(Cc3cccs3)CC3CCCO3)n2)cc1` (centres undefined) | 26.07 |
| `CC(C)(C)OCCN1CCCC1c1nc(Cc2ccc(F)cc2)no1` (centres undefined) | -0.2717 |
| `COc1ccc(OCCN(C)S(=O)(=O)c2cnn(C)c2)cc1` | -16.13 |
| `Cn1cc(C2CCCN2CCC(=O)N2CCc3sccc3C2)cn1` (centres undefined) | 20.55 |
| `Cc1nn(C)c(C)c1C1COCCN1C(=O)c1n[nH]c2ccccc12` (centres undefined) | 3.644 |
| `CCn1cc(CN(C)S(=O)(=O)c2ccccc2)cn1` | 6.784 |
| `Cn1ncnc1NS(=O)(=O)c1ccc(F)cc1Cl` | 13.66 |
| `Cc1cc(NC(=O)N2CCOCC2)nn1-c1ccccc1Cl` | 8.696 |
| `c1ccc(CNc2nc(N3CCOCC3)nc3nccnc23)cc1` | 14.56 |
| `CC(C)N1CCCC(Cc2cncc(Br)c2)CC1` (centres undefined) | 19.77 |
| `CCOc1ccc(C(=O)CCC(=O)N(C)Cc2snnc2C)cc1C` | 0.5602 |
| `N#Cc1ccc(F)c(CNc2ccc(F)cc2OCCO)c1` | 2.801 |
| `O=C1CC2(CCN(CCCF)CC2)CN1Cc1cc(F)cc(F)c1` | 9.014 |
| `CN1CCCC2(CCN(C(=O)CCn3cncn3)C2)C1=O` (centres undefined) | 11.85 |
| `CN(CC(=O)NCC(F)(F)F)C(=O)c1ccc(=O)[nH]c1` | 13.24 |
| `COc1ccc(C(=O)N2C[C@@H](C(=O)O)[C@H](c3ccccc3)C2)c(O)c1` | 7.117 |
| `O=S1(=O)C[C@@H]2[C@H](C1)N(Cc1cc(Cl)cc(Cl)c1)CCN2CC1CC1` | 18.54 |
| `O=C(NCC1CCC2(CCNCC2)CO1)c1cnccn1` (centres undefined) | 1.038 |
| `Cc1nc[nH]c1-c1nc2cc(S(=O)(=O)N3CCCC3)ccc2n1C` | 12.32 |
| `Cc1nccc(CNC(=O)N(CCCO)C2CCc3ccccc32)n1` (centres undefined) | 5.422 |
| `COc1ccc(C(=O)N2CCN(C(=O)CCCc3cn[nH]c3)CC2)cc1` | 10.03 |
| `O=C1CCc2cc(-c3csc(CCN4CCOC4=O)n3)c(F)cc2N1` | 7.229 |
| `CC(C)(NC(=O)Cc1ccccc1F)C(C)(C)C(=O)O` | 9.938 |
| `Cc1cc(F)cc(S(=O)(=O)Nc2ccn(CCCC#N)n2)c1` | 15.16 |
| `Cc1n[nH]c(C)c1NC(=O)NCc1cc[nH]n1` | 9.218 |
| `CCN(CC)Cc1nc2c(o1)CN(C(=O)c1ccc3ncccc3c1)C2` | 7.317 |
| `COc1ccccc1C1CCCN1CC(=O)N1CCC(C(N)=O)CC1` (centres undefined) | 0.6452 |
| `Cc1ccc(CN2CCN(c3ncccc3Cl)CC2CCO)cc1` (centres undefined) | 21.09 |
| `O=C(CN1CCC(c2nnc(C(F)(F)F)o2)CC1)Nc1cccnc1` | 5.367 |
| `Cc1nc(CC(=O)N2CCc3nc(-c4cnccn4)nc(O)c3C2)cs1` | 5.729 |
| `Cc1ccc(CN(C)C(=O)Cn2nc(-c3ccc(F)cc3)oc2=O)cc1` | 6.628 |
| `CC(NCc1ccc(OCC(N)=O)cc1)c1ccc2c(c1)CCCC2` (centres undefined) | 16.43 |
| `COc1cc(C(=O)NS(=O)(=O)c2cncc(Br)c2)cc(Cl)c1OC` | 9.645 |
| `O=C(CNC(=O)Nc1cccc(Cl)c1SC(F)F)NC1CC1` | 14.13 |
| `CNC(=O)C(C)S(=O)(=O)Cc1csc(-c2cccs2)n1` (centres undefined) | 17.96 |
| `O=C(CC1CCCO1)Nc1cccc(N2CCN(CC3CC3)CC2)c1` (centres undefined) | 22.1 |
| `N#CCCN(CC1CCOC1)Cn1ccc(-c2ccsc2)n1` (centres undefined) | 7.888 |
| `O=C(CN1CCCCCCC1=O)NCc1ccccn1` | 9.5 |
| `COCCN1CCO[C@H]2CCN(C(=O)c3cccs3)CC[C@@H]21` | 8.696 |
| `Cc1cccnc1CC(C)NC1Cc2ccccc2C1` (centres undefined) | 5.333 |
| `CNC(=O)NCC(=O)N(C)C(c1ccc(Cl)cc1)c1cccnc1` (centres undefined) | 4.45 |
| `Cc1cscc1-c1nc(C2CCOC2)no1` (centres undefined) | 3.971 |
| `Cc1cnn(CC2CCCCN2CC(=O)Nc2nc(C)cs2)c1` (centres undefined) | 23.21 |
| `CC(C)OCCOCc1cccc(NC(=O)NCc2ccncc2)c1` | 3.937 |
| `Brc1ccc(CN2CCC(NCc3ncc[nH]3)CC2)cc1` | 22.44 |
| `CCN(CC1CCOC1)S(=O)(=O)Cc1cc(Cl)ccc1OC` (centres undefined) | 8.493 |
| `Cc1c[nH]c(C2CCCN(Cc3cccc(C(=O)O)c3)C2)n1` (centres undefined) | 19.37 |
| `Cn1cc(CN2CCCC23CCN(Cc2nccn2C)CC3)cn1` | 13.12 |
| `O[C@@H]1CN(Cc2cccc(F)c2)CC[C@H]1NCc1ccccn1` | 7.188 |

The first 6 entries again:

Compound,inhibition
CCC(CC)n1nc(C)cc1NC(=O)CC1CCOCC1,0.9926
O=C(Cc1ccccc1F)N1CCC[C@@H]1Cn1c(=O)oc2ccccc21,1.562
Cc1cc(S(=O)(=O)N2CCCc3cc(Cl)ccc32)sc1C(=O)O,-18.04
CN(Cc1noc(C2CC2)n1)C1CCN(Cc2ncc[nH]2)C1 (centres undefined),4.737
CN(C)C(=O)c1cccnc1-c1ccc2c(c1)OCCO2,5.974
O=C(NCCNc1ncccn1)C1CCN(C(=O)NC2CC2)CC1,19.44